Reference: US20160129030A1, “TREATMENT OF MTOR HYPERACTIVE RELATED DISEASES AND DISORDERS” (priority 2013, published 2016)
Structures can show the parent of a compound that is named as a salt.

System: 621-101 cells
Protocol: Candidate compounds were screened for cytotoxic or anti-proliferative activity in cells lacking TSC2.
The screen is being performed in 621-101 cells (which are derived from an angiomyolipoma (AML) of a patient with LAM and have a bi-allelic TSC2 inactivating mutation). The 621-101 cells are plated at 1250 cells/well in 384-well plates and grown overnight. Compound libraries are then added at the ICCB and allowed to incubate for 48-72 h. […] Treatment with staurosporine (1-2 uM) represents a positive control for cell death.
The inventors screened the Known Bioactives Collection at the ICCB which consists of approximately 7,000 compounds.

CN1CCC[C@@H]1CCO[C@](C)(c1ccccc1)c1ccc(Cl)cc1 [clemastine fumarate]
cytotoxic or antiproliferative activity: cytotoxic or antiproliferative activity in the absence of rapamycin
effectiveness depending on mTOR pathway activity (mTOR pathway active vs. rapamycin pretreatment): only effective when the mTOR pathway is active
